From patent publication US9592228B2, “Treatment of inflammation using alpha 7 receptor-binding agonists” (THE FEINSTEIN INSTITUTE FOR MEDICAL RESEARCH, priority 2002, dated 2017)
At least one structure is not confirmed: it was looked up by name or label, or the drawing left a doubt.

System: TNF production by LPS-stimulated nicotinic acetylcholine receptor α7 subunit knockout peritoneal macrophages
Format: cell-based, mouse

For `CC(=O)OCC[N+](C)(C)C` [Ach, acetylcholine], the “TNF production by α7 knockout macrophages in the presence of the agonist” value was “produced TNF normally”.
